{"source": "paper doi:10.1101/2021.04.01.438103", "molecular_target": "ELKS-1::TurboID::mNeongreen fusion protein (elks-1(syb1710) knock-in) (C. elegans)", "assay": "proximity labelling", "note": "Results are given in words; binding and its absence hold for the method and conditions named. In cells and extracts the contact can be indirect. Here binding means that the protein was enriched with, or labelled near, the bait; the list need not be complete.", "data": [{"binder": "SYD-1/SYDE1 (protein, UniProt Q86NH1 1-987) MLISTSLKFLTMLTSNGFGGTNPPKGMPYPPTYLYTEEPQNECCCCWLCRLLCCCSPVDQTASRSRMNASQPPPGGGGRLPDEVFRKITAVDQGQSTLTQSGIQGLSARTLSSEPRGDLVFQLVEIIKKPGQSLGLYLREGNGKDRSDGVFVSRFGDNSELAKYGEVMRPGDEILTINNVEVSMMSIDDVVLILSIPRRLLLRIRYSKSMRHEIISSRSRESERPVVVFHKYDDRRDSETNAPILSQPTSTANTWLGKKSRQQMEEMRNATTSSTLRTHASTSSPRNHFAPRLVNGHSHSIGVPSASTTSHDHQYQRFASEPSDSVSRTARVPPPRLASATVRRTESFNSAPGVSTSAPMYTLPRSSTAVPPPDILGSIPYSARDPLMRSSADLPYDPMTGRLSSSVPTDPLLSRSLCSPILPRTLRQANDSNKSNSLPRRRIMTGGRNVKWRNDVVSTSDLCGEESDGAISAPEYSSPPFSRLTQQQQFRLSNGSPGRTVNDIFSAAEYRNWAGPYDPRGMYGPFPPGQRATRWSHTYGEQRAPRTSSLPGRTVLAQSLVGSPVLPRHPPPIVQDRPSAVFDRYHVSPLMNRRAPLRAAGPGINVDRLSVSSLTGILYVHIVEGRGLKIPEKQKGLTEEMYCVLEVDEQHRARTGVSTIEQKFKWRETFHIDVVNATVSNFFVYSWHPQFRHKLCHKGSLKLLEAFVVDQLNDDRVFALNLEPRGQLIVRIGFHDLQAVFRRTVNPRLNGVFGISLSRLVQRERRDTPIVLTRLIQEIEKRGVDYSGLYVLCGSVEKKKMLRAELESNPLGTELAAESIPDTNVIACLIKDFLRELPEPLISPQIHGMLLEAASVALPNDVQTNRHLVLKIIDCLQLSAKNCLLLVLDHLSTVLCSSPHNGLTPTRLSLIFAPLLFFCLDTFSPYTISPTSKMAAVRTLDINQASSSLQMILSIWPSRVNSESGSDSPATTCQKGGVIAYVSESQC", "values": [{"measurement": "binding", "result": "binds"}]}, {"binder": "SAD-1/BRSK1 (protein, UniProt Q19469 1-914) MFEALKEVLGEINSKLAAVNNELSSKIMSENIVSTRPVAQAQYCGPYKLEKTLGKGQTGLVKTGTHCITGRKVAIKIVNKEKLSESVLQKVEREIAIMKLIEHPHVLHLYDVYENKKYLYLLLEHVSGGELFDYLVRKGRLMSKEARKFFRQIISALDFCHAHNICHRDLKPENLLLDERNNIKVADFGMASLQVEGSMLETSCGSPHYACPEVIRGEKYDGRKADVWSCGVILYALLVGALPFDDDNLRNLLEKVKRGVFHIPHFVPADVQSLLRAMIEVDPGKRYSLADVFKHPWVSGTTKADPELELPMSQVVQTHVIPGEDSIDPDVLRHMNCLGCFKDKQKLINELLSPKHNTEKMVYFLLLDRKRRRPAQEDDTEIVLRGAAQNNDPPKKRTDSSRTSRYPMGSIADGSPINPRKTYGRNQKSGRHSSLGGSPTESPRSSTRDLFGSSSSGSYSARAGEDRDRGRSASRSTNSYHYYTQPVDPQTLAEAARHVRDAQERRESRDSGRGSSRKESKDRSDKSASSSSCKNDASSTSSVPHKYSPPSVMSESVVVSSSTMNSTNSSTNSLIAGNSQTSIGSTSGPWRSKLNNIKNSFLGTPRFHRRKMSNGTAESDSEDSQMIDTTDLVKKSWFGSLASSMSVERDDTHCVPVQGKTLNSIKAELIRAFLQIHELSHSVVGQNCFRVEYKRGPTVGGSVFSRGIKMNVDIIPSPQQVVIAGETPTYVVQFVLLAGPVRRFKRLVEHLSAILQNSTQQRADRQQQAALMVRPRRLSDSSVGSACSDSESNASSINMIARHSDKTETTSATSSDPYGPSPSMRSVGSGTANSYKSPTPHRRNTTAVTASSSSASNRYGPSSSSSGSYSNNADYSYHPEYSQRSNGSSAPKNQYSPGSQRSFAFSMFNKADKV", "values": [{"measurement": "binding", "result": "binds"}]}]}
